Several values for one entry are separate records, joined by “and”; a condition that tells them apart may be missing. Equal entries are not always repeated. Structures can show the parent of a compound that is named as a salt. This is one part of the list. This data set is noisy: repeats of one test often differ as much as different tests do.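 HEK293T cells were given each compound shortly before transfection with a reporter in which red mCherry is followed by the SARS-CoV-2 frameshift element and then GFP in the −1 frame, so GFP appears only after frameshifting.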

The test system of the test is HEK293T. In words: percent viability (nuclei count) relative to control; higher = more viable cells. Particulars: 10 µM; 24 h.
As for `CC1(C)S[C@@H]2[C@H](N3C(=O)[C@@H](c4ccccc4)NC3(C)C)C(=O)N2[C@H]1C(=O)O` [Hetacillin], the percent viability came out at 215%.

For the molecule `CCCCNc1ccc(C(=O)OCCOCCOCCOCCOCCOCCOCCOCCOCCOC)cc1` [benzonatate], the percent viability came to 321%.

`NS(=O)(=O)Cc1noc2ccccc12` [zonisamide]: the percent viability was found to be 216%.

Take `O=S1(=O)c2cccc3cccc(c23)N1CCCN1CCN(c2ccc(F)cc2)CC1` [fananserin]: the percent viability was 137%.

For `O=C(O)[C@H](CC(=O)N1C[C@H]2CCCC[C@H]2C1)Cc1ccccc1` [mitiglinide], the percent viability came out at 153%.

For `O=S(=O)(O)c1ccc2[nH]c(-c3ccccc3)nc2c1` [ensulizole], the percent viability was 166%.

Consider `Cc1scc2c1N(C(=O)CN1CCN(C)CC1)c1ccccc1NC2=O`, for which the percent viability turned out to be 231%.

Regarding `O=C(O)[C@@H](S)[C@@H](S)C(=O)O` [succimer], the percent viability was found to be 151%.

`O=S(=O)(O)CCS` [mesna]: the percent viability turned out to be 108%.

Consider `CC(C(=O)O)c1ccc(-c2ccccc2)c(F)c1` (stereo not given) [flurbiprofen], for which the percent viability is 302% and 144%.

As to `Cc1cncc(CN2CCC(=C3c4ccc(Cl)cc4CCc4cccnc43)CC2)c1` [rupatadine], the percent viability came to 227%.

Take `O=C([O-])c1ccccc1[O-].[Bi+3].[OH-]`: the percent viability came out at 94.1%.

On to `O=C1CCCC(=O)C1C(=O)c1ccc(C(F)(F)F)cc1[N+](=O)[O-]` [nitisinone], for which the percent viability was determined as 117%.

`C[N+](C)([O-])CCC=C1c2ccccc2CCc2ccccc21` [amitriptylinoxide]: the percent viability amounted to 78.3%.

On to `CC1(C)O[C@@H]2C[C@H]3[C@@H]4C[C@H](F)C5=CC(=O)C=C[C@]5(C)[C@H]4[C@@H](O)C[C@]3(C)[C@]2(C(=O)CO)O1`, for which the percent viability was determined as 274%.

Regarding `CN(CC1(C)CCCO1)S(=O)(=O)c1ccc(Cl)c(S(N)(=O)=O)c1` (stereo not given) [mefruside], the percent viability amounted to 242%.

In the case of `O=C(O)Cc1cn(-c2ccccc2)nc1-c1ccc(Cl)cc1` [lonazolac], the percent viability was 143%.

`[N-]=[N+]=NCC(=O)N[C@H](CO)[C@H](O)c1ccc([N+](=O)[O-])cc1` [azidamfenicol]: the percent viability is 206%.

For the molecule `CCCCCCCCCCCCCCC[C@H](O)[C@@H](N)CO` [safingol], the percent viability is 148%.

As for `CC(=O)[C@H]1CC[C@H]2[C@@H]3C=CC4=CC(=O)CC[C@@]4(C)[C@@H]3CC[C@]12C` [dydrogesterone], the percent viability was determined as 135%.

For the molecule `O=C(Nc1ccc(Cl)cc1)Nc1ccc(Cl)c(Cl)c1` [triclocarban], the percent viability was 51.9%.

For `CN1N=C2CCN(C(=O)[C@@H](COCc3ccccc3)NC(=O)C(C)(C)N)C[C@@]2(Cc2ccccc2)C1=O` [capromorelin], the percent viability stood at 145%.

For `CN1CC[C@H](c2c(O)cc(O)c3c(=O)cc(-c4ccccc4Cl)oc23)[C@H](O)C1` [alvocidib], the percent viability was found to be 14.7%.

For the molecule `N[C@@H](CCC(=O)O)C(=O)O` [glutamic acid], the percent viability came to 169%.

Regarding `CC(C)OC(=O)CCC/C=C\C[C@@H]1[C@@H](CC[C@@H](O)CCc2ccccc2)[C@H](O)C[C@@H]1O` [Latanoprost], the percent viability was 227% and 78.7%.

`CC(C)c1nnc(NS(=O)(=O)c2ccc(N)cc2)s1` [glyprothiazol]: the percent viability was determined as 106%.

Regarding `CCCCCCCCCCCCCCOS(=O)(=O)O` [Sodium Tetradecyl Sulfate], the percent viability came to 214%.

Regarding `CN(C/C=C/c1ccccc1)Cc1cccc2ccccc12`, the percent viability stood at 385%.

Regarding `Cc1cc(O)cc(C)c1Cl` [chloroxylenol], the percent viability worked out at 193%.

For `O=C1CN(/N=C/c2ccc([N+](=O)[O-])o2)C(=O)N1CO` [nifurtoinol], the percent viability stood at 157%.

With `Nc1ccc(S(=O)(=O)Nc2ncccn2)cc1` [sulfadiazine sodium], the percent viability came out at 185%.

Turning to `CC(C)c1[nH]c2ccccc2c1C(=O)c1cccnc1` [nictindole], the percent viability turned out to be 187%.

Consider `C[C@@H](O[C@H]1OCCN(Cc2n[nH]c(=O)[nH]2)[C@H]1c1ccc(F)cc1)c1cc(C(F)(F)F)cc(C(F)(F)F)c1` [Emend], for which the percent viability was determined as 253%.

Consider `OC(CCN1CCCCC1)(c1ccccc1)c1ccccc1` [pridinol], for which the percent viability stood at 317%.

As for `C#C[C@]1(O)CC[C@H]2[C@@H]3CCC4=Cc5oncc5C[C@]4(C)[C@H]3CC[C@@]21C` [danazol], the percent viability was 159% and 222%.

For the molecule `CC(C)(O)c1ccccc1CC[C@@H](SCC1(CC(=O)O)CC1)c1cccc(/C=C/c2ccc3ccc(Cl)cc3n2)c1` [montelukast], the percent viability is 227% and 310%.

For the molecule `COc1ccc2c(c1)c(CC(=O)NO)c(C)n2C(=O)c1ccc(Cl)cc1` [oxametacin], the percent viability came to 132%.

Take `O[C@@H]1CO[C@H]2[C@@H]1OC[C@@H]2O` [isosorbide]: the percent viability was 52.9%.

`COC(=O)[C@H](Cc1ccccc1)NC(=O)[C@@H](N)CC(=O)O` [aspartame]: the percent viability amounted to 122%.

In the case of `COc1ccc(CN(CCN(C)C)c2ncccn2)cc1` [thonzylamine], the percent viability turned out to be 118%.

The values are drawn from the supplement of paper PMC8256030.
